Data published in publication PMC10411476.
Results are given in words; binding and its absence hold for the method and conditions named. Binding seen in cells or lysates may run through a third protein. Some entries that bind do so weakly or less than the wild type.

Protein sequences, listed by entry. Tags and fused reporters are not part of them.
UniProt P40763: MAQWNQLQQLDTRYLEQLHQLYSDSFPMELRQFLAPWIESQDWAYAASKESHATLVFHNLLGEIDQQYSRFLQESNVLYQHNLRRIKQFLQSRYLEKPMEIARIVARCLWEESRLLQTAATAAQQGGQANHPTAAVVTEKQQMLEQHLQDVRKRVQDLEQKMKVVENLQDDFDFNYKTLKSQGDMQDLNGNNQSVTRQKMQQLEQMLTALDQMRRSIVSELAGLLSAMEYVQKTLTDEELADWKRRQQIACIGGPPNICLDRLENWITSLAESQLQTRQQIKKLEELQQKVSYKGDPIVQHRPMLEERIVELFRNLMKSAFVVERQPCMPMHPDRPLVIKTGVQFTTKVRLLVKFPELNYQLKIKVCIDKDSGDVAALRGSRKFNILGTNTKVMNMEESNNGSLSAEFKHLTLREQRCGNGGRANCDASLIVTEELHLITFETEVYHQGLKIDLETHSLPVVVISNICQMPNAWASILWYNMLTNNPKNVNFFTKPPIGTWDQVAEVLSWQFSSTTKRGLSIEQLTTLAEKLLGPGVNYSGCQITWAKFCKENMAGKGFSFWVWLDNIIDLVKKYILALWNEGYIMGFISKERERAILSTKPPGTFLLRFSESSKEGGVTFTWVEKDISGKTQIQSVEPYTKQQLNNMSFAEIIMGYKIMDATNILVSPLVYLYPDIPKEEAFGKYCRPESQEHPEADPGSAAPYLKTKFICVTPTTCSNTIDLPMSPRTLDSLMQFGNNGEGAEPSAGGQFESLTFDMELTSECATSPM

Target: T1, SET domain containing 7 (SETD7) (human (endogenous in T24 and UMUC3)) (UniProt Q8WTS6)
T1 sequence: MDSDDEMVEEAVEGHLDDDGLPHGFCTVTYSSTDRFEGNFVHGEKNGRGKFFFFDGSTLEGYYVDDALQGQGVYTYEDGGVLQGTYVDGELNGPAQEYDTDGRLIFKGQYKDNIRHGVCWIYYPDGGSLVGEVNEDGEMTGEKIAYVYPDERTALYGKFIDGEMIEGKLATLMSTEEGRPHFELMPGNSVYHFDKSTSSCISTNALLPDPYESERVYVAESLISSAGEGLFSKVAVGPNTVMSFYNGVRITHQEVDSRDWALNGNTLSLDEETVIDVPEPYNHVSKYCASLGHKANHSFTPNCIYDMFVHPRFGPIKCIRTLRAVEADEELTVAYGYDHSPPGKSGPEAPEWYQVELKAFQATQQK
Test: co-IP; IP/CO-IP Kit (Absin); immunoprecipitation with anti-SETD7 antibody (1:120, Abcam) overnight at 4 °C, western blot with anti-STAT3; T24 and UMUC3 cells

STAT3 (from UniProt P40763 1-770)
binding: binds
